# Measured data: PubChem BioAssay AID504774 (Drosophila RNAi Screening Center, 2011)
# Screen: 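Fly genes whose loss alters survival after alkylation damage to DNA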 (primary screen)
# System: Drosophila Kc167 cells
# Knock-down reagent: long dsRNA against Drosophila genes, about 0.25 µg dsRNA per well
# Timing: about 6 days: 3 days knock-down, then 3 days with or without MMS
# Treatment: methyl methanesulphonate 0.004% (w/v) for 3 days after knock-down
# Read-out: 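Viability in wells given MMS, read as ATP luminescence, normalised by quantiles plate by plate and averaged across replicates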
# Scale: mean viability with MMS and viability with MMS: higher = more surviving cells after MMS
# The deposit covers about 23,000 reagents; shown is an unselected part of those that have a named target and a result. 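Values are quantile-normalised luminescence on an arbitrary scale; higher means more cells surviving MMS.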 A plus sign joins genes that one reagent is predicted to hit. Not all columns of the deposit are shown. No sequences are given here.
target gene,DRSC id,mean viability with MMS,"viability with MMS, replicate 1"
CG6295,DRSC16012,3.47e6,3.81e6
Jhbp7 (Juvenile hormone binding protein 7),DRSC14408,3.41e6,3.80e6
CG34106,DRSC01578,3.50e6,3.94e6
CG14005,DRSC02337,3.48e6,3.80e6
rha,DRSC17044,3.42e6,3.91e6
Sam-S (S-adenosylmethionine Synthetase),DRSC00758,2.94e6,3.20e6
CG17111,DRSC15174,3.58e6,3.98e6
CG11892,DRSC14428,3.47e6,3.90e6
CG13326,DRSC06363,3.38e6,3.79e6
Plp (Pericentrin-like protein),DRSC10006,3.42e6,3.89e6
Plp (Pericentrin-like protein),DRSC10333,3.45e6,3.93e6
Plp (Pericentrin-like protein),DRSC10700,3.64e6,4.15e6
Cog1 (Component of oligomeric golgi complex 1),DRSC15661,3.77e6,4.30e6
RNF220 (ring finger protein 220),DRSC15652,3.68e6,4.12e6
TkR86C (Tachykinin-like receptor at 86C),DRSC16880,3.56e6,4.00e6
nesd (nessun dorma),DRSC02099,3.34e6,3.84e6
CG4462,DRSC15583,3.63e6,4.14e6
Gprk1 (G protein-coupled receptor kinase 1),DRSC20732,2.46e6,4.08e6
Gprk1 (G protein-coupled receptor kinase 1),DRSC20916,2.26e6,3.99e6
Inx3 (Innexin 3),DRSC14857,3.58e6,4.00e6
Naa80 (N(alpha)-acetyltransferase 80),DRSC16429,3.52e6,3.98e6
MED7 (Mediator complex subunit 7),DRSC16059,2.91e6,3.67e6
CG31415,DRSC22409,3.58e6,4.04e6

4 entries from above, set out differently:
CG14005 [DRSC02337]
- mean viability with MMS: 3.48e6
- viability with MMS, replicate 1: 3.80e6

rha [DRSC17044]
- mean viability with MMS: 3.42e6
- viability with MMS, replicate 1: 3.91e6

Sam-S (S-adenosylmethionine Synthetase) [DRSC00758]
- mean viability with MMS: 2.94e6
- viability with MMS, replicate 1: 3.20e6

CG17111 [DRSC15174]
- mean viability with MMS: 3.58e6
- viability with MMS, replicate 1: 3.98e6

Further reagents follow:
target gene,DRSC id,mean viability with MMS,"viability with MMS, replicate 1"
Trs31 (TRAPP subunit 31),DRSC05975,3.59e6,4.03e6
ari-2 (ariadne 2),DRSC04672,3.40e6,3.84e6
CG31077,DRSC13805,3.44e6,3.92e6
RpS28a (Ribosomal protein S28a),DRSC15064,3.51e6,3.92e6
CG31827 + CG18478,DRSC01958,3.41e6,3.78e6
GstT3 (Glutathione S transferase T3),DRSC20541,3.58e6,4.14e6
CG17528,DRSC07761,3.58e6,4.10e6
Obp99c (Odorant-binding protein 99c),DRSC16262,3.61e6,4.14e6
phtm (phantom),DRSC20237,3.45e6,3.97e6
RpL6 (Ribosomal protein L6),DRSC14323,3.14e6,3.66e6
RpL6 (Ribosomal protein L6),DRSC22384,2.69e6,3.70e6
M7BP (Myosin-7a binding protein),DRSC05932,3.45e6,4.05e6
Btnd (Biotinidase),DRSC18316,3.51e6,3.97e6
CG42662 + CG30080,DRSC05571,3.59e6,4.15e6
CG4956,DRSC15683,3.70e6,4.12e6
CG9452,DRSC11075,3.61e6,4.03e6
CG9452,DRSC23344,3.17e6,3.21e6
Tango4 (Transport and Golgi organization 4),DRSC19786,2.82e6,3.16e6
CG17329,DRSC01926,3.45e6,3.94e6
CCT7 (Chaperonin containing TCP1 subunit 7),DRSC16410,3.29e6,3.82e6
Rlb1,DRSC16826,3.64e6,4.12e6
Cyp4g1 (Cytochrome P450 4g1),DRSC18459,3.54e6,4.05e6
CG4596,DRSC15608,3.53e6,4.01e6
